The record followed here is PubChem BioAssay AID2685 (National Center for Advancing Translational Sciences (NCATS), 2010).

This is one part of the list. Further columns of the screen follow, without active or inactive calls. Compounds called inactive in the main read-out are mostly missing here. Potencies come from curve fits of mixed quality, noted in brackets.

This assay in a line: qHTS Assay for Lipid Storage Modulators in Drosophila S3 Cells.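 On cell number change: cells counted by Cell Tracker Red CMTPX staining in the red channel.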 To be noted: BODIPY lipid droplet fluorescence, 18-24 h; for cell number change: measured here: cell count max response, cells fed with added oleic acid. The procedure, abridged: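 Drosophila S3 cells got compounds at several concentrations plus oleic acid (400 uM solution). Laser-scanning cytometry with 488 nm excitation read lipid droplets at 500-530 nm and cells at 575-640 nm. Percent activity was relative to 20 uM Triacsin C.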
(In general: Quantitative high-throughput screening tests each substance at several concentrations.)

Setting [1] is: measured here: cell number channel AC50, cells fed with added oleic acid.
Where [2] appears, read: measured here: lipid fluorescence (Fed channel) AC50, cells fed with added oleic acid.

What is called AC50 is the concentration at which the activity in the assay is half-maximal. A low value points to activity at low concentration. For the compound `CCC1CCc2c([nH]c3ccccc3c2=O)O1` (configuration not stated), the cell number change was found to be 35.5%. Moreover, under setting [1], the AC50 is 9.2 µM [rising, partial curve]. Regarding `N#CCCN(C1CCCCC1)S(=O)(=O)CCOc1ccccc1`, the cell number change was 11.2%. Besides, the half-maximal activity concentration (AC50) under setting [2] was 29.1 µM [rising, single point]. Take `CC(C)C(=O)Nc1nnc(CSCc2ccccc2F)s1`: the AC50 under setting [1] was 0.58 µM [falling, single point]. On to `COc1ccc(C(=O)c2c3ccc(C(F)(F)F)cc3[n+]([O-])n2CCCN)cc1`, for which the cell number change is -24.7%. The AC50 under setting [2] is 5.17 µM [falling, partial curve, poor fit].

On to `Cc1ccccc1NC(=O)Cc1nc(COC(=O)c2ccc(O)cc2O)cs1`, for which the cell number change was -45%. Besides, the AC50 under setting [1] is 20.6 µM [falling, single point]. The half-maximal activity concentration (AC50) under setting [2] was 3.26 µM [rising, partial curve]. In the case of `CN(CC(=O)Nc1ccc(N2CCOCC2)cc1)C(=O)c1cc2c(s1)CCCC2`, the cell number change is -20.8%. The AC50 under setting [2] was 0.00461 µM [falling, full curve, poor fit].

For `CC(=O)c1cccc(NC(=S)N2CCN(c3ccccn3)CC2)c1`, the cell number change is -8.42%. Further, the half-maximal activity concentration (AC50) under setting [2] is 29.1 µM [falling, single point]. Consider `Cc1cc(N/N=C/c2ccncc2)nc2ccccc12`, for which the cell number change came to 17.2%. The half-maximal activity concentration (AC50) under setting [2] is 0.112 µM [rising, full curve, poor fit]. `COc1ccc(Cl)cc1NC(=O)COC(=O)C(CC(C)C)N1C(=O)C2CC=CCC2C1=O` (configuration not stated): the cell number change is -31.3%. The AC50 under setting [1] is 16.4 µM [falling, single point]. Regarding `COc1cc(S(=O)(=O)N2CCN(c3ccccc3F)CC2)ccc1Cl`, the cell number change was determined as 280%. Moreover, the AC50 under setting [1] is 16.4 µM [rising, partial curve]. Besides, the concentration at half-maximal activity (AC50) under setting [2] was 3.66 µM [rising, partial curve].

`COC(=O)c1c(SCC(=O)NC2CCCCC2)[nH]c2ccccc2c1=O`: the cell number change was -47.7%. Also, under setting [1], the concentration at half-maximal activity (AC50) is 29.1 µM [falling, single point]. Under setting [2], the AC50 is 29.1 µM [falling, single point].

On to `COc1ccc(-n2nc(C(=O)NCC(=O)NCCCN3CCN(C)CC3)c3ccccc3c2=O)cc1`, for which the cell number change stood at 3.6%. For the same compound, under setting [2], the AC50 is 29.1 µM [rising, single point].

On to `C/C(=C\C(=O)c1ccccc1)Nc1cccc(O)c1`, for which the cell number change was 3.39%. For the same compound, under setting [2], the AC50 is 16.4 µM [falling, single point]. `CCOc1ccc(NC(=O)c2ccccc2NC(=O)CN2CCCCCC2)cc1`: the cell number change is -55.4%. In addition, under setting [1], the AC50 was 29.1 µM [falling, single point]. Take `CC(=O)NC(Cc1c[nH]c2ccccc12)C(=O)NCc1ccco1` (configuration not stated): the cell number change was -1.26%. Besides, the half-maximal activity concentration (AC50) under setting [2] was 0.206 µM [rising, single point]. Take `CC(C)(C)c1ccc(OC(=O)Cn2c(C(F)(F)F)nc3ccccc32)cc1`: under setting [2], the AC50 is 6.51 µM [falling, full curve]. Turning to `CCCCC(=O)Nc1ccc(F)c(Cl)c1`, the cell number change is -91.6%. Also, under setting [1], the AC50 was 29.1 µM [falling, single point]. Also, under setting [2], the AC50 is 20.6 µM [falling, single point]. In the case of `Cc1cccc2nc(CSc3nc4cc([N+](=O)[O-])ccc4s3)cn12`, the cell number change amounted to 13.3%. Besides, under setting [2], the AC50 was 0.164 µM [falling, full curve, poor fit]. Regarding `N#CCc1ccc(Oc2ncc(C(F)(F)F)cc2Cl)cc1`, the cell number change is 21.4%. As to `O=C(Nc1cccc(S(=O)(=O)N2CCCC2)c1)c1cccnc1`, the cell number change is -23.5%. In addition, under setting [2], the concentration at half-maximal activity (AC50) was 29.1 µM [falling, single point]. As to `O=C(NCCCc1ccccc1)c1ccc(Br)o1`, the cell number change was determined as 14.5%. Further, the AC50 under setting [1] was 0.731 µM [rising, single point]. `O=C(O)c1ccc(CNC(=O)C23CC4CC(CC(C4)C2)C3)cc1`: the cell number change was 21.4%. With `CC(=O)Nc1ccc(NC(=O)COC(=O)Cc2cccs2)cc1`, the cell number change was -38%. The AC50 under setting [1] was 1.64 µM [falling, full curve]. Besides, the concentration at half-maximal activity (AC50) under setting [2] is 29.1 µM [falling, single point]. In the case of `O=C1OC(c2ccccc2)=NC12CC2c1ccc(Cl)cc1` (configuration not stated), the cell number change was -2.38%. Further, the AC50 under setting [2] is 16.4 µM [falling, partial curve].

For the compound `Cc1ccc(-c2nnn(CC(=O)Nc3ccc(S(=O)(=O)N4CCC(C)CC4)cc3)n2)cc1`, the cell number change was -65.3%. Also, under setting [1], the half-maximal activity concentration (AC50) is 6.51 µM [falling, partial curve]. For the same compound, the AC50 under setting [2] is 8.2 µM [falling, partial curve].

For the compound `COC(=O)[C@@H](Cc1c[nH]c2ccccc12)NC(=O)c1ccc2c(c1)OCO2`, the cell number change is -9.22%. Still for that read-out and setting: as for `CCC(C)NCC(O)(c1ccc(Cl)cc1)c1ccc(Cl)cc1` (configuration not stated), the figure is 22.5%. In the case of `CCOC(=O)C1CCN(S(=O)(=O)c2ccc(OCC)cc2)CC1`, the cell number change was -1.15%. Under setting [2], the concentration at half-maximal activity (AC50) was 32.6 µM [rising, single point].

As to `CCN(CC(=O)Nc1ccc(NC(C)=O)cc1)C(=O)CSCc1c(C)noc1C`, the cell number change was -2.55%. Under setting [2], the half-maximal activity concentration (AC50) is 25.9 µM [falling, partial curve]. On to `COc1ccc(N/C(=C(/C(Cl)=C(Cl)Cl)[N+](=O)[O-])n2nnc3ccccc32)cc1OC`, for which the cell number change was found to be 58.4%. Further, the concentration at half-maximal activity (AC50) under setting [1] was 11.6 µM [rising, partial curve]. In addition, under setting [2], the concentration at half-maximal activity (AC50) was 29.1 µM [rising, partial curve]. In the case of `Cn1c(NC(=O)Cc2cccs2)cc(=O)n(C)c1=O`, the cell number change is -11.9%. Besides, under setting [2], the AC50 is 0.461 µM [rising, partial curve].

Take `O=C(CCCn1cnc([N+](=O)[O-])n1)Nc1ccc(F)c(Cl)c1`: the cell number change came to 24.3%. In addition, under setting [2], the half-maximal activity concentration (AC50) was 0.13 µM [falling, full curve, poor fit]. With `Cc1ccc2c(C(=O)CN3CCN(c4ccccc4)CC3)c(C)[nH]c2c1`, the cell number change was -1.93%. In addition, under setting [2], the half-maximal activity concentration (AC50) is 0.0366 µM [rising, full curve, poor fit]. In the case of `O=C(O)[C@H](Cc1ccccc1)NC(=O)N1CCCCCC1`, the cell number change amounted to 61.3%. Also, the half-maximal activity concentration (AC50) under setting [1] was 29.1 µM [rising, single point]. For the compound `COc1ccc(-n2nc(C(=O)NCC(=O)Nc3cccc(NC(C)=O)c3)c3ccccc3c2=O)cc1`, the AC50 under setting [1] was 0.082 µM [rising, full curve, poor fit].

In the case of `Cc1ccc(C)c(OCc2cc(C(=O)NC3CCN(Cc4ccccc4)CC3)no2)c1`, the cell number change is -17.6%. For the same compound, the AC50 under setting [2] is 6.51 µM [falling, single point]. As to `CCOC(CNc1ncnc2sc(-c3ccccc3)cc12)OCC`, the cell number change came out at 14.4%. Still for that read-out and setting: as for `CCN(C(=O)c1cccnc1SC)C12CC3CC(CC(C3)C1)C2`, the figure is 22.6%. Take `CC(=O)c1ccc(Cl)c(Cl)c1Cl`: the cell number change is -33.3%. Moreover, under setting [1], the AC50 is 25.9 µM [falling, single point]. Moreover, the AC50 under setting [2] is 0.092 µM [rising, full curve, poor fit]. For `O=C(CN(Cc1ccco1)C(=O)Cn1nnc(-c2cccs2)n1)NCc1ccccc1`, the cell number change was determined as 33.7%. For the same compound, the AC50 under setting [1] was 16.4 µM [rising, single point]. In addition, the half-maximal activity concentration (AC50) under setting [2] was 0.731 µM [rising, single point]. As to `COc1cc(C2C(C(=O)/C=C/c3ccccc3)=C(O)C(=O)N2c2ccccn2)ccc1O` (configuration not stated), the cell number change was -13.7%. Besides, the AC50 under setting [1] was 4.61 µM [falling, single point]. The AC50 under setting [2] was 1.46 µM [falling, partial curve]. `Cn1c(=O)c(Sc2ccc(Cl)cc2)c(O)c2ccccc21`: the cell number change turned out to be 14.6%. Further, the AC50 under setting [2] is 18.4 µM [rising, single point]. For the compound `COC(=O)c1ccc(N2C(=O)CC(N3CCOCC3)C2=O)cc1` (configuration not stated), the cell number change was -9.11%. Besides, the half-maximal activity concentration (AC50) under setting [2] is 0.00461 µM [rising, full curve, poor fit]. As to `O=C(CC1(O)C(=O)Nc2ccccc21)c1ccc(-n2cnnn2)cc1` (configuration not stated), the cell number change was -14.2%. The concentration at half-maximal activity (AC50) under setting [2] is 0.116 µM [falling, full curve, poor fit]. In the case of `COC(=O)C1=C(C)NC(C)=C(C(=O)OC)C1C(=O)OCC(=O)c1ccc(Br)cc1`, the cell number change is -7.04%. On to `COc1ccc(S(=O)(=O)NC(C)C(=O)NCc2ccccn2)cc1OC` (configuration not stated), for which the cell number change is -0.855%. Also, the AC50 under setting [2] was 0.082 µM [falling, full curve, poor fit]. For `CCCc1ccc(OCC(=O)Nc2cc(S(=O)(=O)CC)ccc2O)cc1`, the cell number change came to 7.03%. Moreover, under setting [2], the concentration at half-maximal activity (AC50) was 0.231 µM [rising, full curve]. With `CC(C)C[C@H](NC(=O)c1[nH]cnc1C(=O)Nc1ccccc1)C(=O)OC(C)(C)C`, the cell number change is -15.9%. Under setting [2], the AC50 is 2.31 µM [falling, partial curve]. `CCN(C(=O)COC(=O)CCC(=O)c1cccs1)c1c(N)n(Cc2ccccc2)c(=O)[nH]c1=O`: the cell number change was -16%. In addition, under setting [2], the AC50 was 23.1 µM [falling, partial curve]. Take `COCCn1c(SCC(=O)NN2C(=O)NC(C)(c3ccccc3)C2=O)nnc1-c1ccncc1` (configuration not stated): the cell number change was -4.82%. Besides, the half-maximal activity concentration (AC50) under setting [2] was 14.6 µM [rising, partial curve]. For `Cc1c(C(=O)NCc2ccccn2)sc2nc(-c3ccccc3)cn12`, the half-maximal activity concentration (AC50) is 0.13 µM [rising, full curve, poor fit] under setting [1] and 0.116 µM [rising, full curve, poor fit] under setting [2].

In the case of `O=Cc1ccc(OC(=O)c2cc(Cl)nc3ccccc23)cc1`, the cell number change was -29.9%. In addition, the half-maximal activity concentration (AC50) under setting [2] is 0.00517 µM [falling, full curve, poor fit].

Regarding `CN(CC(=O)NCCc1ccccc1)Cc1ccco1`, the cell number change worked out at 20.8%. Besides, the concentration at half-maximal activity (AC50) under setting [2] is 16.4 µM [falling, single point]. Take `O=C(Nc1ccc(NC(=O)C2CCCCC2)nc1)c1ccco1`: the cell number change is -16.5%. Moreover, the AC50 under setting [2] is 6.51 µM [falling, single point].

`COc1ccc(NS(=O)(=O)c2cccc(C(=O)OCC(=O)Nc3cc(C)on3)c2)cc1`: the cell number change is -74.6%. For the compound `CN(CC(=O)NC1CCCCC1)S(=O)(=O)c1cccc2cccnc12`, the cell number change came to 26.1%. Further, the concentration at half-maximal activity (AC50) under setting [2] was 0.184 µM [rising, full curve, poor fit].

Regarding `CCN(CC)C(=O)c1cc2cc([N+](=O)[O-])ccc2s1`, the cell number change is -25.1%. Under setting [1], the AC50 was 1.46 µM [falling, full curve, poor fit]. As to `Cc1cccc(C)c1OCCSc1n[nH]c(N)n1`, the cell number change was determined as 79.3%. Further, the concentration at half-maximal activity (AC50) under setting [1] is 0.164 µM [rising, full curve, poor fit]. Besides, the AC50 under setting [2] is 1.84 µM [rising, partial curve]. For `CCc1ccc(NC(=O)CNC(=O)c2cn(-c3ccccc3OC)c(=O)c3ccccc23)cc1`, the cell number change is -0.879%.
